According to patent US20250282872A1 (ANAPTYSBIO, published 2025):
These are yes or no findings as the source states them, for the method shown. For some of these results: Binding seen in cells or lysates may run through a third protein. Some results given as binding are weak or reduced against the parent protein; the word gives no strength. For some of these results: Where a sequence is shown, tags or fusion partners need not be part of it.

Key:
[1] = molecular target: T1, recombinant human BTLA monomer, amino acids 31-155 with 6-his tag (human) (UniProt Q7Z6A9); experiment: hydrogen-deuterium exchange with LC-MS
T1 sequence: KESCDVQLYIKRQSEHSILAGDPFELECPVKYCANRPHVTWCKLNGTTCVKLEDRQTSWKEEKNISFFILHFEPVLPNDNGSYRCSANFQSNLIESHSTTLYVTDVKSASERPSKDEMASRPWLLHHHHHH

[2] = molecular target: cynomolgus monkey BTLA on cells (cynomolgus monkey); experiment: flow cytometry on 293c18 cells stably expressing cynomolgus monkey BTLA
[3] = molecular target: cynomolgus monkey BTLA on cells (cynomolgus monkey); experiment: flow cytometry on cynomolgus monkey whole blood, AF647-labeled antibody
[4] = molecular target: cynomolgus monkey BTLA on cells (cynomolgus monkey); experiment: flow cytometry on cynomolgus monkey lysed whole blood, gated CD3+ T cells, AF647-labelled antibody, mean fluorescence intensity
[5] = molecular target: cynomolgus monkey BTLA on cells (cynomolgus monkey); experiment: flow cytometry on cynomolgus monkey lysed whole blood, gated CD20+ B cells, AF647-labelled antibody, mean fluorescence intensity
[6] = molecular target: cynomolgus monkey BTLA on cells (cynomolgus monkey); experiment: receptor occupancy in vivo: flow cytometry of blood T and B cells of cynomolgus monkeys dosed weekly with 6G3 IgG4, free receptor stained with 6G3 IgG4-DyL488 [panels Receptor Occupancy, T cells and B cells]

Measured: binding

B1: 6G3 IgG4 anti-BTLA antibody (antibody, V domains shown)
VH: QVQLVQSGAEVKKPGSSVKVSCKASGYVFSTSWMNWVRQAPGQGLEWMGRIYPGDADTNYVGKFKGRVTITADKSTTTAYMELSSLRSEDTAVYFCAKSGTFNFGNYRWYFDVWGKGTTVTVSS
VL: AIQLTQSPSSLSASVGDRVTITCRVSENIYSHLAWYQQKPGKAPKLLIYAATNLALGVPSRFSGSGSGTDYTLTISSLQPEDFATYYCQLFWGPPLTFGGGTKVEIKR
notes: Humanized, IgG4; also called APE10840; APE10840.03
binds: all assays above

B2: 10D8 antibody APE11482 (antibody, V domains shown)
VH: QVQLVQSGAEVKKPGASVKVSCKASGYTLTDYTIHWVRQAPGQRLEWMGWIYPGSGNTKYNDEFKVRVTITRDTSASTAYMELSSLRSEDTAVYYCARRNYYAMEYWGQGTTVTVSS
VL: DIQMTQSPSSLSASVGDRVTITCKASQNVFTNVAWFQQKPGKAPKPLIYSASYRYSGVPSRFSGSGSGTDFTLTISSLQPEDFATYYCQQYSTYPYTFGQGTKLEIKR
binds: [1]
